Measurements published in the supplement of paper PMC10849652.
The other results are listed elsewhere or left out. Residues, ends and D or L forms follow the SMILES beside them. *: point of attachment. Cbz = O=C(OCc1ccccc1)*

Protein sequences, listed by entry. Tags and fused reporters are not part of them. Lines headed by an entry give the natural chain unless they say otherwise; changes in a name come on top.
UniProt P46060: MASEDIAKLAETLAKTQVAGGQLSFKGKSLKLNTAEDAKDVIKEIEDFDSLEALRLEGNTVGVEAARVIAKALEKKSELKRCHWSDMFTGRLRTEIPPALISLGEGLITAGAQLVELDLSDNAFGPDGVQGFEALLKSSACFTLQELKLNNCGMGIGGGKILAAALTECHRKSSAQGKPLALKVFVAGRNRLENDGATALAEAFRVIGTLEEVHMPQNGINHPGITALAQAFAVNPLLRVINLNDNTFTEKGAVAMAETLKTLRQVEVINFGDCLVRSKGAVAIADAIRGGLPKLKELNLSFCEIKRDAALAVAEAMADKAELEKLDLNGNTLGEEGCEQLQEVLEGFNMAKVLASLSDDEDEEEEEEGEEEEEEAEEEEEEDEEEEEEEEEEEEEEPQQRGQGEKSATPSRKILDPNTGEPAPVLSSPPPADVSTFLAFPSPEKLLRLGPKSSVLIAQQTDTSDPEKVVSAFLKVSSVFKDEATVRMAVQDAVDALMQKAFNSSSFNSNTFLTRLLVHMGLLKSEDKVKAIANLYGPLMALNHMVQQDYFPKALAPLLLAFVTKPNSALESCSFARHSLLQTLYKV
UniProt Q9UI14, whole entry, looked up: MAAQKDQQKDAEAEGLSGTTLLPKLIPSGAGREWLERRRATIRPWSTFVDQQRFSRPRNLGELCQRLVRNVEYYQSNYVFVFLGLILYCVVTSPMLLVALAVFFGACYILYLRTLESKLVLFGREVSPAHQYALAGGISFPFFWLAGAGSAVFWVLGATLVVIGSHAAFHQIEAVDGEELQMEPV
UniProt P54136: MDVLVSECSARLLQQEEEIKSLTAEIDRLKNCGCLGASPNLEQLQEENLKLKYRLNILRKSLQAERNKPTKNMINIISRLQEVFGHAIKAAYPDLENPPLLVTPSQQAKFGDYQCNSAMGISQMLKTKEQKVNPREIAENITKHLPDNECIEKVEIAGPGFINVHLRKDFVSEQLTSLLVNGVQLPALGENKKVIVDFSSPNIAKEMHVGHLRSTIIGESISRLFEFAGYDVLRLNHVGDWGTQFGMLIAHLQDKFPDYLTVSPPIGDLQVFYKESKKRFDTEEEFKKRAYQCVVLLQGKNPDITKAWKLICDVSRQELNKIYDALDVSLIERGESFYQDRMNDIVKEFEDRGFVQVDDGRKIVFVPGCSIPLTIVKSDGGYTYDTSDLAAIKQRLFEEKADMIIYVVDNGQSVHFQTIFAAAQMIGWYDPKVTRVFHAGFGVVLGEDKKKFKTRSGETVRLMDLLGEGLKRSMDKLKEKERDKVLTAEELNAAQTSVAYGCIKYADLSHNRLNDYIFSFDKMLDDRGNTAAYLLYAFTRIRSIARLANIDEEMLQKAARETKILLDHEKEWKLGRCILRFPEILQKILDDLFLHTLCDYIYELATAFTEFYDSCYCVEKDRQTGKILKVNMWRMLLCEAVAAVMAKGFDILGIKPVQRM
UniProt Q96S59, whole entry, looked up: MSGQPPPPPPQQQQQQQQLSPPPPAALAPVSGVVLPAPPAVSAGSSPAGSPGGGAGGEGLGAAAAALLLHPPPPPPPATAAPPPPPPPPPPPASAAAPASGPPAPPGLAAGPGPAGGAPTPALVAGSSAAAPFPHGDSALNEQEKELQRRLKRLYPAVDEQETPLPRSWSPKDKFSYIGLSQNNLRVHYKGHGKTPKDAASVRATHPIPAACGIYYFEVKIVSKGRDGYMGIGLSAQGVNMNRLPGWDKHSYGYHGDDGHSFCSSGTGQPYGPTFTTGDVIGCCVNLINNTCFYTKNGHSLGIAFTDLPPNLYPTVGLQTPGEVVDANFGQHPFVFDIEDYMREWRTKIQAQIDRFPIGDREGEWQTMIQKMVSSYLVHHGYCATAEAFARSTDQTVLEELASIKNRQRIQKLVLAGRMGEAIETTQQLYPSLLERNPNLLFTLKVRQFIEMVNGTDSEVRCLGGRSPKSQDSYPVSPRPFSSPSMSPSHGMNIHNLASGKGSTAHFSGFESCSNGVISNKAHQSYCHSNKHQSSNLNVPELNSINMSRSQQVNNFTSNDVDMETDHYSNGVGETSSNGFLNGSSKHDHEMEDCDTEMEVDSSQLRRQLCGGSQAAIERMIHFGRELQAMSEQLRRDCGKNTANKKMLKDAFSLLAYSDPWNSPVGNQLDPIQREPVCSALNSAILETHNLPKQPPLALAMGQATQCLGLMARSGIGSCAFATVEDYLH
UniProt P49792, whole entry, looked up: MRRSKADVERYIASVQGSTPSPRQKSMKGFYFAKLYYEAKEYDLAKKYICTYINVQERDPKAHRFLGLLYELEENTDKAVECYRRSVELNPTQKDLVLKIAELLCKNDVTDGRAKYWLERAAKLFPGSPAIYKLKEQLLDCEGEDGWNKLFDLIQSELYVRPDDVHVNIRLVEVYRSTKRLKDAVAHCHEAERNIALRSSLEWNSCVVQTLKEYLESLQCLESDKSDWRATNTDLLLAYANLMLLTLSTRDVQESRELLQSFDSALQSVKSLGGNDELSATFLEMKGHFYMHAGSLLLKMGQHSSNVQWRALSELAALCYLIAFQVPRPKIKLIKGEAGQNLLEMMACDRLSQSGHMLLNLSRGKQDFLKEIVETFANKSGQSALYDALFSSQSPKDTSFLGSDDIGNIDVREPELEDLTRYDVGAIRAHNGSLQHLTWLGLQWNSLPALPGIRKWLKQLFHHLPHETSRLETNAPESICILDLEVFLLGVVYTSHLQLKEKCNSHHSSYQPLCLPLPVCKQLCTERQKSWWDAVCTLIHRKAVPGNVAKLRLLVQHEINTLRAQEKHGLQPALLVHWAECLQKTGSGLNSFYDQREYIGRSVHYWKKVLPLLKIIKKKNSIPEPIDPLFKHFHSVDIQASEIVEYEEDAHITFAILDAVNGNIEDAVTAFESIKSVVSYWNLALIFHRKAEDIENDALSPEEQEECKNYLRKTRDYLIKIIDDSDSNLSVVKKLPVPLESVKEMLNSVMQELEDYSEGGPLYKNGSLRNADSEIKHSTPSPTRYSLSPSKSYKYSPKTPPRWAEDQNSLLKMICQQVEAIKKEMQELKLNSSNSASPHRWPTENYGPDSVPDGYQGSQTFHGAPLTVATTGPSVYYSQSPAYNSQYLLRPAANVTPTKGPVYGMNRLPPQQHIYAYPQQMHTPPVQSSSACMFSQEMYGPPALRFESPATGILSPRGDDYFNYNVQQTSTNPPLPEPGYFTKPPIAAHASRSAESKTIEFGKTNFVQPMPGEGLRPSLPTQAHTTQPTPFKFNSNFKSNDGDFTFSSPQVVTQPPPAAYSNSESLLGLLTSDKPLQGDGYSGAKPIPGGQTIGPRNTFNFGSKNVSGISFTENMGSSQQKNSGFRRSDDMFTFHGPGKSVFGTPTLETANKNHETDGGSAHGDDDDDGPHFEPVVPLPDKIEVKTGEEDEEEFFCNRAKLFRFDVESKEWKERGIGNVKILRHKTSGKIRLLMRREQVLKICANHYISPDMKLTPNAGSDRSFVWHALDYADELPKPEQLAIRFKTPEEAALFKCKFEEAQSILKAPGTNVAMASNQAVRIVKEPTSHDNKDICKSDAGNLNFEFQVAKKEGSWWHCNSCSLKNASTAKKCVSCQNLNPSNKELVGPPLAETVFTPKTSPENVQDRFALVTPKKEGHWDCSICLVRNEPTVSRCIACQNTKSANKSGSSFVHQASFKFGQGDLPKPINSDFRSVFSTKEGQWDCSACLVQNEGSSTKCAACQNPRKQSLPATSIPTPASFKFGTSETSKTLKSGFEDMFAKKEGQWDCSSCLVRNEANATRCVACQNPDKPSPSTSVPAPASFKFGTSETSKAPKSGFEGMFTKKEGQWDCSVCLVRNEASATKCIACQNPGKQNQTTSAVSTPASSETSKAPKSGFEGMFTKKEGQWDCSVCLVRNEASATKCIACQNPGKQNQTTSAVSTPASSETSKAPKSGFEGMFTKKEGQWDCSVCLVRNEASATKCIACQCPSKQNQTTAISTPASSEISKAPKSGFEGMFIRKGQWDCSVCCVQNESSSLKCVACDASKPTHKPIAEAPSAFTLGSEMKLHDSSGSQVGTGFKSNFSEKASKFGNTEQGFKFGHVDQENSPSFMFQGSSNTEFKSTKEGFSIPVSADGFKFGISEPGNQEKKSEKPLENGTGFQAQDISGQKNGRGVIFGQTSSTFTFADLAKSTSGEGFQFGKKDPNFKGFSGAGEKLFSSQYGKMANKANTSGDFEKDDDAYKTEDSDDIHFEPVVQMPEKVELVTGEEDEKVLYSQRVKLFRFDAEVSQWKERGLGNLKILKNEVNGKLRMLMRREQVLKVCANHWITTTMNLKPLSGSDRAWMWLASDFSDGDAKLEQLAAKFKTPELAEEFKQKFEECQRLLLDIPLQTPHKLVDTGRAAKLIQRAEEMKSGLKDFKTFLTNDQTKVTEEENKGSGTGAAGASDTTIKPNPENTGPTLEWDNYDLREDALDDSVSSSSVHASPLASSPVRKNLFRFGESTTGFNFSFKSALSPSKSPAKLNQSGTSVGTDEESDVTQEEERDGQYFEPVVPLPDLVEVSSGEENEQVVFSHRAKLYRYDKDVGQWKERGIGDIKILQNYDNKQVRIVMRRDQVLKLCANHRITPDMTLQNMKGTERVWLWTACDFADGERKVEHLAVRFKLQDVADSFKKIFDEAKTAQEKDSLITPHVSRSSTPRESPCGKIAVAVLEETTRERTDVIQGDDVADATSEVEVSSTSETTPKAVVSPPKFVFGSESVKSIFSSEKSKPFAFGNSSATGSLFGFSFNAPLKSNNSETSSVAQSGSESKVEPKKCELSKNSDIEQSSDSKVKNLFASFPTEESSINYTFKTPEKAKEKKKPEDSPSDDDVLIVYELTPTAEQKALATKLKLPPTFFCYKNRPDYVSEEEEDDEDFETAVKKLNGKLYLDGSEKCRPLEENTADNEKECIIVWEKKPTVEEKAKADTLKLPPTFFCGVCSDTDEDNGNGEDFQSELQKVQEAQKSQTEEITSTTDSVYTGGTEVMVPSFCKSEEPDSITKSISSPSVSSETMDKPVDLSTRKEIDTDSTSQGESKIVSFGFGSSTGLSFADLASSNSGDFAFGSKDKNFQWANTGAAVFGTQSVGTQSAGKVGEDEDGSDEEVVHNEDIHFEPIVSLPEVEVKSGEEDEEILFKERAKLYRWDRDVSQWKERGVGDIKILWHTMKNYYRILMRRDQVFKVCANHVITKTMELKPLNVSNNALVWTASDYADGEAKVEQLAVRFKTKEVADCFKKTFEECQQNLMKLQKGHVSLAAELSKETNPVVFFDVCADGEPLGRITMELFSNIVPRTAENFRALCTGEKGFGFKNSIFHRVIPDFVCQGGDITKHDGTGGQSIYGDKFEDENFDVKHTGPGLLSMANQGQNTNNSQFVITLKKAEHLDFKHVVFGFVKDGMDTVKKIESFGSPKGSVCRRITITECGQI
UniProt P20339: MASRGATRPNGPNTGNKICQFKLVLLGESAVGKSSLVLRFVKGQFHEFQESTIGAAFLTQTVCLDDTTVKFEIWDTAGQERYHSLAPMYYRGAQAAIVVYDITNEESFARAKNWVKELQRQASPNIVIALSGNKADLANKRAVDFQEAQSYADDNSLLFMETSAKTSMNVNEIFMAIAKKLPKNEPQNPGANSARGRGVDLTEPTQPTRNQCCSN
UniProt P62820, whole entry, looked up: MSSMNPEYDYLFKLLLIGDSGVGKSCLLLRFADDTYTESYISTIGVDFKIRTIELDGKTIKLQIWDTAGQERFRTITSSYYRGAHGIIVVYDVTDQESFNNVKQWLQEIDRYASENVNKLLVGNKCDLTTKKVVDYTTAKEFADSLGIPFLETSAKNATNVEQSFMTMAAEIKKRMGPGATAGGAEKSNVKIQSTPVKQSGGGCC
UniProt P62491: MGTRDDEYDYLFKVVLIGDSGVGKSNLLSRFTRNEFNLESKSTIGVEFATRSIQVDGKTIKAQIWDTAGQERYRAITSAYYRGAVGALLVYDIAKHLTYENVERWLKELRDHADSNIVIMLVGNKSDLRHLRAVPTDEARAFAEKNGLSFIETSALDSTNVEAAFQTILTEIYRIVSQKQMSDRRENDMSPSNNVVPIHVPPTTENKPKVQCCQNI
UniProt Q92696: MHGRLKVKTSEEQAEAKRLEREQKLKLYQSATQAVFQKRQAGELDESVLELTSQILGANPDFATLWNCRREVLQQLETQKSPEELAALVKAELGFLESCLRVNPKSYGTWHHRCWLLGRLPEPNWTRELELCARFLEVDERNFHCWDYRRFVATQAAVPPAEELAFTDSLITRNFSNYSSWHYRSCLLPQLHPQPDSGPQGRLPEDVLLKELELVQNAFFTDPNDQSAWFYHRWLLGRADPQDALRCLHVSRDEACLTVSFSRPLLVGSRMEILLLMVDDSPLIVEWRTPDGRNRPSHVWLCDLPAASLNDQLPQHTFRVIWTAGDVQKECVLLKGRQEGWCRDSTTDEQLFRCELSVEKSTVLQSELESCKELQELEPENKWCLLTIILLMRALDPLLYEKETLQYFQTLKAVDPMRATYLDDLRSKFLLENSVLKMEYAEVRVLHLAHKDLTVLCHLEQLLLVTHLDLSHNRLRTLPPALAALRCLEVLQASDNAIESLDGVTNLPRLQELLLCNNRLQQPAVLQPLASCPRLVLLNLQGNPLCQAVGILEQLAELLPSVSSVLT

Legend:
Test in all cases: log2 fold change, soluble protein after heating vs DMSO (PISA); higher = thermal stabilisation; K562 cells, 10 uM, 30 min; active = over 0.2 and 3.5 SD of the protein, either way, in both replicates (recomputed)
erlotinib = compound: C#Cc1cccc(Nc2ncnc3cc(OCCOC)c(OCCOC)cc23)c1 [erlotinib]
Method in brief: (§1)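 K562 cells at 2×10^6 cells/mL were exposed to 10 μM compound for 30 min, then aliquots were heated for 3 min across 48°C-58°C, pooled, and extracted in PBS containing 0.5% NP-40 at 4°C. The supernatant after 21,000xg for 90 min was taken as soluble protein and measured by TMTpro 16plex LC-MS/MS with channel sums equalised. Thermal stability is reported relative to control samples, with values from duplicates. Fold changes are given on a log2 scale.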

[1] = compound: C/C(=N\NC(=O)C1=CC(=CC=C1)S(=O)(=O)N2CCOCC2)/C3=C(C=CC(=C3)Cl)O
Method in brief: as §1

[2] = compound: C1=CC(=C(C=C1Cl)C2=NC3=NC=CN=C3C(=N2)NC4=CC=NC=C4)F
Method in brief: as §1

[3] = compound: C1=CC(=CC=C1C2=NC3=C(N2)C=C(C=C3)C(=O)N)OC4=CC=C(C=C4)Cl
Method in brief: as §1

[4] = compound: C1=CC2=C(C=CC(=C2)/C=C\3/C(=O)NC(=NCC4=CC=CS4)S3)N=C1
Method in brief: as §1

[5] = compound: C1=CC2=NC=CN=C2C=C1/C=C/3\C(=O)NC(=O)S3
Method in brief: as §1

[6] = compound: C1=CC=C(C=C1)C2=NC(=C(N2)C3=CC=NC=C3)C4=CC(=C(C=C4)Cl)O
Method in brief: as §1

[7] = compound: C1=CC=C2C(=C1)C3=NNC4=CC=CC(=C43)C2=O
Method in brief: as §1

[8] = compound: C1CCN(C1)C(=O)NC2=CC=CC(=C2)NC3=NC=C(C(=N3)NCCC4=CN=CN4)Br
Method in brief: as §1

[9] = compound: C1CN(CCC1(CC2=CC=C(C=C2)Cl)N)C3=NC=NC4=C3C=CN4
Method in brief: as §1

IRAK-1-4 Inhibitor I = compound: C1COCCN1CCN2C3=CC=CC=C3N=C2NC(=O)C4=CC(=CC=C4)[N+](=O)[O-] [IRAK-1-4 Inhibitor I]
Method in brief: as §1

ibrutinib = compound: C=CC(=O)N1CCC[C@@H](n2nc(-c3ccc(Oc4ccccc4)cc3)c3c(N)ncnc32)C1 [ibrutinib]
Method in brief: as §1

[10] = compound: CC(=O)c1cnc2ccc(-c3cc(Cl)c(O)c(Cl)c3)nc2c1N[C@H]1CC[C@H](CN(C)C)CC1
Method in brief: as §1

ralimetinib = compound: CC(C)(C)Cn1c(N)nc2ccc(-c3[nH]c(C(C)(C)C)nc3-c3ccc(F)cc3)nc21 [ralimetinib]
Method in brief: as §1

[11] = compound: CC(C)(O)CC(=O)NCCn1ccc2ncnc(Nc3ccc(Oc4cccc(C(F)(F)F)c4)c(Cl)c3)c21
Method in brief: as §1

[12] = compound: CC(C)C1=C2N=C(C=C(N2N=C1)NCC3=CC=CC=C3)NCCCCCCN
Method in brief: as §1

[13] = compound: CC(C)C[C@@H](C=O)NC(=O)[C@H](CC(C)C)NC(=O)[C@H](CC(C)C)NC(=O)OCc1ccccc1
Method in brief: as §1

pinometostat = compound: CC(C)N(C[C@H]1O[C@@H](n2cnc3c(N)ncnc32)[C@H](O)[C@@H]1O)[C@H]1C[C@@H](CCc2nc3cc(C(C)(C)C)ccc3[nH]2)C1 [pinometostat]
Method in brief: as §1

[14] = compound: CC1=C(C(CC(=O)N1)C2=CC=C(C=C2)C(F)(F)F)C(=O)NC3=C(C=C4C(=C3)C=NN4)F
Method in brief: as §1

[15] = compound: CC1=C(C2=C(C=C1)C(=O)C3=CC=CC=C3N2CCCN)C
Method in brief: as §1

Measured: log2 fold change

RANGAP1 (UniProt P46060)
inactive: erlotinib 0.002 | [1] 0.044 | [2] -0.001 | [3] -0.01 | [4] 0.024 | [5] 0.05 | [6] 0.014 | [7] 0.029 | [8] -0.007 | [9] -0.024 | IRAK-1-4 Inhibitor I -0.034 | ibrutinib -0.04 | [10] 0.019 | ralimetinib 0.047 | [11] -0.066 | [12] -0.116 | [13] 0.026 | pinometostat 0.044 | [14] -0.001 | [15] 0.039

RBM27 (UniProt Q9P2N5)
inactive: erlotinib 0.034 | [1] 0.079 | [2] 0.003 | [3] 0.022 | [4] -0.039 | [5] -0.01 | [6] -0.067 | [7] 0.022 | [8] -0.061 | [9] -0.128 | IRAK-1-4 Inhibitor I -0.123 | ibrutinib 0.023 | ralimetinib -0.045 | [11] -0.063 | [13] 0.042 | pinometostat 0.028 | [15] 0.05
active: [10] -0.338 | [12] -0.479

RAB11FIP1 (UniProt Q6WKZ4)
inactive: erlotinib 0.004 | [1] 0.074 | [2] 0.078 | [3] -0.039 | [4] 0.02 | [5] -0.004 | [6] 0.031 | [7] 0.009 | [8] -0.049 | [9] 0.027 | IRAK-1-4 Inhibitor I 0.014 | ibrutinib -0.009 | [10] -0.067 | ralimetinib 0.023 | [11] -0.016 | [12] -0.118 | [13] -0.004 | pinometostat 0.059 | [15] 0.041

RABAC1 (UniProt Q9UI14)
inactive: erlotinib 0.021 | [1] 0.043 | [2] 0.099 | [3] -0.007 | [4] -0.053 | [5] 0.002 | [6] -0.022 | [7] -0.128 | [8] 0.061 | [9] 0.208 | IRAK-1-4 Inhibitor I 0.117 | ibrutinib 0.053 | [10] 0.071 | ralimetinib -0.028 | [11] 0.127 | [12] 0.015 | [13] 0.082 | pinometostat 0.051 | [14] 0.055 | [15] -0.058

RAB13 (UniProt P51153)
inactive: erlotinib -0.042 | [1] 0.156 | [2] 0.133 | [3] -0.01 | [4] -0.085 | [5] 0.024 | [6] 0.031 | [7] 0.017 | [8] -0.057 | [9] -0.03 | IRAK-1-4 Inhibitor I 0.013 | ibrutinib 0.003 | [10] 0.023 | ralimetinib -0.055 | [11] -0.007 | [12] 0.015 | [13] -0.088 | pinometostat -0.037 | [14] -0.019 | [15] -0.018

RAC3 (UniProt P60763)
inactive: erlotinib 0.05 | [1] -0.016 | [2] 0.029 | [3] -0.042 | [4] 0.009 | [5] 0.02 | [6] -0.009 | [7] -0.09 | [8] -0.007 | [9] 0.005 | IRAK-1-4 Inhibitor I 0.115 | ibrutinib 0.022 | [10] 0.104 | ralimetinib -0.008 | [11] 0.032 | [12] 0.082 | [13] -0.009 | pinometostat -0.081 | [15] 0.102

RARS (UniProt P54136)
active: [12] -0.545
inactive: erlotinib 0.023 | [1] 0.011 | [2] -0.169 | [3] -0.007 | [4] 0.019 | [5] 0 | [6] -0.046 | [7] -0.005 | [8] 0.07 | [9] -0.155 | IRAK-1-4 Inhibitor I -0.087 | ibrutinib -0.024 | [10] 0.12 | ralimetinib 0.097 | [11] -0.001 | [13] 0.096 | pinometostat 0.32 | [15] 0.009

RBM12 (UniProt Q9NTZ6)
inactive: erlotinib 0.092 | [1] 0.187 | [2] 0.123 | [3] -0.022 | [4] 0.117 | [5] -0.003 | [6] -0.008 | [7] 0.011 | [8] -0.046 | [9] 0.006 | IRAK-1-4 Inhibitor I -0.042 | ibrutinib -0.018 | [10] -0.135 | ralimetinib -0.037 | [11] -0.145 | [12] -0.237 | [13] 0.009 | pinometostat -0.043 | [15] -0.007

RASSF5 (UniProt Q8WWW0)
inactive: erlotinib -0.08 | [1] 0.001 | [2] -0.101 | [3] -0.033 | [4] -0.001 | [5] 0.005 | [6] 0.082 | [7] -0.07 | [8] 0.052 | [9] -0.001 | IRAK-1-4 Inhibitor I 0 | ibrutinib -0.062 | [10] 0.018 | ralimetinib 0.179 | [11] 0.067 | [12] 0.076 | [13] -0.124 | pinometostat 0.002 | [14] 0.025 | [15] -0.042

RANBP9 (UniProt Q96S59)
inactive: erlotinib -0.054 | [1] 0.017 | [2] -0.006 | [3] 0.01 | [4] -0.037 | [5] 0.011 | [6] 0.026 | [7] 0.007 | [8] -0.003 | [9] 0.017 | IRAK-1-4 Inhibitor I 0.003 | ibrutinib -0.026 | [10] 0.052 | ralimetinib 0.038 | [11] 0.011 | [12] -0.032 | [13] 0.012 | pinometostat 0.011 | [14] 0.023 | [15] -0.086

RANBP2 (UniProt P49792)
inactive: erlotinib -0.107 | [1] 0.007 | [2] 0.062 | [3] 0.081 | [4] 0.082 | [5] 0.003 | [6] -0.007 | [7] -0.028 | [8] 0.005 | [9] 0 | IRAK-1-4 Inhibitor I 0.024 | ibrutinib 0.035 | [10] 0.081 | ralimetinib 0.022 | [11] -0.043 | [12] -0.136 | [13] 0.024 | pinometostat -0.017 | [15] 0.076

RAB5A (UniProt P20339)
inactive: erlotinib -0.013 | [1] 0.105 | [2] 0.071 | [3] 0.06 | [4] -0.126 | [5] 0.023 | [6] -0.015 | [7] 0.038 | [8] -0.004 | [9] 0.168 | IRAK-1-4 Inhibitor I 0.008 | ibrutinib 0.023 | [10] 0.028 | ralimetinib 0.024 | [11] -0.077 | [12] 0.015 | [13] -0.051 | pinometostat -0.037 | [14] -0.023 | [15] 0.078

RAPGEF2, A0A2R8YGD3
inactive: erlotinib 0.027 | [1] -0.31 | [2] 0 | [3] -0.005 | [4] 0.035 | [5] 0.03 | [6] 0.058 | [7] -0.135 | [8] -0.039 | [9] 0.131 | IRAK-1-4 Inhibitor I 0.031 | ibrutinib -0.024 | [10] -0.078 | ralimetinib -0.11 | [11] -0.024 | [12] -0.032 | [13] 0.009 | pinometostat 0.002 | [15] 0.09

RBM25 (UniProt P49756)
inactive: erlotinib 0.142 | [1] -0.037 | [2] -0.039 | [3] -0.025 | [4] -0.014 | [5] 0.055 | [6] -0.012 | [7] -0.008 | [8] -0.076 | [9] -0.137 | IRAK-1-4 Inhibitor I 0.031 | ibrutinib 0.01 | [10] -0.032 | ralimetinib 0.102 | [11] -0.044 | [12] 0.026 | [13] 0.057 | pinometostat -0.039 | [15] 0.042

RAB1A (UniProt P62820)
inactive: erlotinib 0.012 | [1] -0.027 | [2] 0.064 | [3] -0.023 | [4] -0.025 | [5] 0.003 | [6] -0.018 | [7] -0.005 | [8] 0.009 | [9] 0.031 | IRAK-1-4 Inhibitor I 0.04 | ibrutinib -0.001 | [10] 0.006 | ralimetinib -0.005 | [11] -0.009 | [12] 0.057 | [13] -0.029 | pinometostat -0.086 | [14] 0.01 | [15] 0.012

Retrieved one by one from the list above (2):
RANBP9 (UniProt Q96S59)
inactive: erlotinib -0.054 | [1] 0.017 | [2] -0.006 | [3] 0.01 | [4] -0.037 | [5] 0.011 | [6] 0.026 | [7] 0.007 | [8] -0.003 | [9] 0.017 | IRAK-1-4 Inhibitor I 0.003 | ibrutinib -0.026 | [10] 0.052 | ralimetinib 0.038 | [11] 0.011 | [12] -0.032 | [13] 0.012 | pinometostat 0.011 | [14] 0.023 | [15] -0.086

RAB1A (UniProt P62820)
inactive: erlotinib 0.012 | [1] -0.027 | [2] 0.064 | [3] -0.023 | [4] -0.025 | [5] 0.003 | [6] -0.018 | [7] -0.005 | [8] 0.009 | [9] 0.031 | IRAK-1-4 Inhibitor I 0.04 | ibrutinib -0.001 | [10] 0.006 | ralimetinib -0.005 | [11] -0.009 | [12] 0.057 | [13] -0.029 | pinometostat -0.086 | [14] 0.01 | [15] 0.012

Next entries

RAB11A (UniProt P62491)
inactive: erlotinib 0.048 | [1] -0.035 | [2] 0.22 | [3] 0.002 | [4] 0.037 | [5] 0.04 | [6] -0.013 | [7] 0.027 | [8] 0.028 | [9] 0.115 | IRAK-1-4 Inhibitor I 0.03 | ibrutinib 0.045 | [10] -0.025 | ralimetinib -0.019 | [11] -0.114 | [12] 0.065 | [13] 0.07 | pinometostat -0.041 | [14] -0.025 | [15] -0.024

RABGGTA (UniProt Q92696)
inactive: erlotinib 0.068 | [1] 0.018 | [2] 0.065 | [3] 0.001 | [4] 0.063 | [5] 0.025 | [6] 0.036 | [7] 0.043 | [8] 0.005 | [9] 0.122 | IRAK-1-4 Inhibitor I 0.064 | ibrutinib -0.021 | [10] -0.02 | ralimetinib -0.038 | [11] -0.021 | [12] 0.049 | [13] -0.041 | pinometostat -0.027 | [15] 0.046
